Measurements: the supplement of paper PMC10849652
The other results are listed elsewhere or left out.

Protein sequences, listed by entry. Tags and fused reporters are not part of them. Lines headed by an entry give the natural chain unless they say otherwise; changes in a name come on top.
UniProt Q9UL33, whole entry, looked up: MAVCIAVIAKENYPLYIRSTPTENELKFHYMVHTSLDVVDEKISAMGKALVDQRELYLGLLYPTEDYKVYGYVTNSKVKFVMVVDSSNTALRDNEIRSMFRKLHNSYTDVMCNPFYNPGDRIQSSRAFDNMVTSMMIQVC
UniProt Q5T2D2: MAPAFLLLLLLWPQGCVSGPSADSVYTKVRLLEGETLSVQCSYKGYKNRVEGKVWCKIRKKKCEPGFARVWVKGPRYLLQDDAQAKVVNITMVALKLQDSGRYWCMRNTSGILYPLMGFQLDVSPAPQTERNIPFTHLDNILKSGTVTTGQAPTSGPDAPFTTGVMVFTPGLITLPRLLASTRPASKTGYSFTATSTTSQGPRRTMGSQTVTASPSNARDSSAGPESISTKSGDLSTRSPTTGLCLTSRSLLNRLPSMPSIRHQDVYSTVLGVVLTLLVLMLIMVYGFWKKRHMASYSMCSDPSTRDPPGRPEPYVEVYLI
UniProt Q8N4H5: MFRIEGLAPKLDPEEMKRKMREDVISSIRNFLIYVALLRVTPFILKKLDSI
UniProt Q8TD43: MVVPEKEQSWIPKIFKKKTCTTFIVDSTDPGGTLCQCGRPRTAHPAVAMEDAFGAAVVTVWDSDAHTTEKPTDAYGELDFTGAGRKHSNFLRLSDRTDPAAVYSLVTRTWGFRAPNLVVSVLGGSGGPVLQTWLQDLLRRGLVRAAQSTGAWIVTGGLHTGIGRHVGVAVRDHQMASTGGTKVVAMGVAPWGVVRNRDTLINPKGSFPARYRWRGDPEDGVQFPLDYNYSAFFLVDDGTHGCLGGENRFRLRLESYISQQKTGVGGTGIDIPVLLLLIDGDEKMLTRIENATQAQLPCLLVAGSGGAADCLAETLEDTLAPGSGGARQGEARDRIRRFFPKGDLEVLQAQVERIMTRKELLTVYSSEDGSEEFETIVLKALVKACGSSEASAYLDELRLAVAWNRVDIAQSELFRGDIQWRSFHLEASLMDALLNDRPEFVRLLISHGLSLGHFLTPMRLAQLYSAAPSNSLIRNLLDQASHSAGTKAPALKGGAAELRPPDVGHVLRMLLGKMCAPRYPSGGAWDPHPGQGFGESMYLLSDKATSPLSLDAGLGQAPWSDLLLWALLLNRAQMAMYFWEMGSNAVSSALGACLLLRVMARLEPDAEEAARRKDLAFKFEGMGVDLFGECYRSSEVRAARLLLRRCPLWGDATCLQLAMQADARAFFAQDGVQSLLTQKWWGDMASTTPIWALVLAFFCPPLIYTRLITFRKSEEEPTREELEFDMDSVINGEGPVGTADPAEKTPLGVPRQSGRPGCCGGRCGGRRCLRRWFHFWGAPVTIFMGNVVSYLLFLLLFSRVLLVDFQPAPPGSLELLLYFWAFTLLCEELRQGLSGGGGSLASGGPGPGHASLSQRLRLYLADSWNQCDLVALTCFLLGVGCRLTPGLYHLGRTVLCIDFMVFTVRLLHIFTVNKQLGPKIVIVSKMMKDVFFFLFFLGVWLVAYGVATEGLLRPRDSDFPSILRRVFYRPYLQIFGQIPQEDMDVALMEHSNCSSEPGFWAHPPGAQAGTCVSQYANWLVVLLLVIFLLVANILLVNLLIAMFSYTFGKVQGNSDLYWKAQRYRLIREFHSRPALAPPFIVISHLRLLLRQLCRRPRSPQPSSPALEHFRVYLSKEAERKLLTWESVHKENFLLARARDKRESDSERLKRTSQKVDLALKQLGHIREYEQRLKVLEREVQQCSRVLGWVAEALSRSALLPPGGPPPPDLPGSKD
UniProt O14773: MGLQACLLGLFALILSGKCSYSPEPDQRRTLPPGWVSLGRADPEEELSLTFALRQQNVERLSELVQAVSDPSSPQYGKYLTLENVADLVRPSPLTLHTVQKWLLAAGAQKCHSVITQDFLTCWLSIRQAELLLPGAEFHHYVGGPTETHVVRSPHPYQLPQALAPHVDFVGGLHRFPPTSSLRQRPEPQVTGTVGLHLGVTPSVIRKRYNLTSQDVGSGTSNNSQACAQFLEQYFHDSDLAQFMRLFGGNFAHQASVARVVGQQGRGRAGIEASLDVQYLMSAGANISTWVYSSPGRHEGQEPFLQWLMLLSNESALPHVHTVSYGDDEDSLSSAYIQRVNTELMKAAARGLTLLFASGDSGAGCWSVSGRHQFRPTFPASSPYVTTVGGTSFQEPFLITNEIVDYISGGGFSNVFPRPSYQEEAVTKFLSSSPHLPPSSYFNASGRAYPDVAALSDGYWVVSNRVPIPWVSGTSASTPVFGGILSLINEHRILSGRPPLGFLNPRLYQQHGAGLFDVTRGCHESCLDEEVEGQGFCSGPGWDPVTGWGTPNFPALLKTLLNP
UniProt Q15629: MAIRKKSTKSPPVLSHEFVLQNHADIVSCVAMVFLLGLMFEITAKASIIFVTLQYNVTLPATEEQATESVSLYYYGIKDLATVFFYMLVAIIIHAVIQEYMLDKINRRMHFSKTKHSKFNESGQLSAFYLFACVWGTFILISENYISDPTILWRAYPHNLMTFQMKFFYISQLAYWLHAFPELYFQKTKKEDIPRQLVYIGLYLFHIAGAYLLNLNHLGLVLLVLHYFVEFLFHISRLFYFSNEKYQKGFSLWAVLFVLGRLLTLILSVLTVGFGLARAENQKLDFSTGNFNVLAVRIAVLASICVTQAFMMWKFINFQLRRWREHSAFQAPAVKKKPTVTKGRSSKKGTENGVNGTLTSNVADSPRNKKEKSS
UniProt Q15643: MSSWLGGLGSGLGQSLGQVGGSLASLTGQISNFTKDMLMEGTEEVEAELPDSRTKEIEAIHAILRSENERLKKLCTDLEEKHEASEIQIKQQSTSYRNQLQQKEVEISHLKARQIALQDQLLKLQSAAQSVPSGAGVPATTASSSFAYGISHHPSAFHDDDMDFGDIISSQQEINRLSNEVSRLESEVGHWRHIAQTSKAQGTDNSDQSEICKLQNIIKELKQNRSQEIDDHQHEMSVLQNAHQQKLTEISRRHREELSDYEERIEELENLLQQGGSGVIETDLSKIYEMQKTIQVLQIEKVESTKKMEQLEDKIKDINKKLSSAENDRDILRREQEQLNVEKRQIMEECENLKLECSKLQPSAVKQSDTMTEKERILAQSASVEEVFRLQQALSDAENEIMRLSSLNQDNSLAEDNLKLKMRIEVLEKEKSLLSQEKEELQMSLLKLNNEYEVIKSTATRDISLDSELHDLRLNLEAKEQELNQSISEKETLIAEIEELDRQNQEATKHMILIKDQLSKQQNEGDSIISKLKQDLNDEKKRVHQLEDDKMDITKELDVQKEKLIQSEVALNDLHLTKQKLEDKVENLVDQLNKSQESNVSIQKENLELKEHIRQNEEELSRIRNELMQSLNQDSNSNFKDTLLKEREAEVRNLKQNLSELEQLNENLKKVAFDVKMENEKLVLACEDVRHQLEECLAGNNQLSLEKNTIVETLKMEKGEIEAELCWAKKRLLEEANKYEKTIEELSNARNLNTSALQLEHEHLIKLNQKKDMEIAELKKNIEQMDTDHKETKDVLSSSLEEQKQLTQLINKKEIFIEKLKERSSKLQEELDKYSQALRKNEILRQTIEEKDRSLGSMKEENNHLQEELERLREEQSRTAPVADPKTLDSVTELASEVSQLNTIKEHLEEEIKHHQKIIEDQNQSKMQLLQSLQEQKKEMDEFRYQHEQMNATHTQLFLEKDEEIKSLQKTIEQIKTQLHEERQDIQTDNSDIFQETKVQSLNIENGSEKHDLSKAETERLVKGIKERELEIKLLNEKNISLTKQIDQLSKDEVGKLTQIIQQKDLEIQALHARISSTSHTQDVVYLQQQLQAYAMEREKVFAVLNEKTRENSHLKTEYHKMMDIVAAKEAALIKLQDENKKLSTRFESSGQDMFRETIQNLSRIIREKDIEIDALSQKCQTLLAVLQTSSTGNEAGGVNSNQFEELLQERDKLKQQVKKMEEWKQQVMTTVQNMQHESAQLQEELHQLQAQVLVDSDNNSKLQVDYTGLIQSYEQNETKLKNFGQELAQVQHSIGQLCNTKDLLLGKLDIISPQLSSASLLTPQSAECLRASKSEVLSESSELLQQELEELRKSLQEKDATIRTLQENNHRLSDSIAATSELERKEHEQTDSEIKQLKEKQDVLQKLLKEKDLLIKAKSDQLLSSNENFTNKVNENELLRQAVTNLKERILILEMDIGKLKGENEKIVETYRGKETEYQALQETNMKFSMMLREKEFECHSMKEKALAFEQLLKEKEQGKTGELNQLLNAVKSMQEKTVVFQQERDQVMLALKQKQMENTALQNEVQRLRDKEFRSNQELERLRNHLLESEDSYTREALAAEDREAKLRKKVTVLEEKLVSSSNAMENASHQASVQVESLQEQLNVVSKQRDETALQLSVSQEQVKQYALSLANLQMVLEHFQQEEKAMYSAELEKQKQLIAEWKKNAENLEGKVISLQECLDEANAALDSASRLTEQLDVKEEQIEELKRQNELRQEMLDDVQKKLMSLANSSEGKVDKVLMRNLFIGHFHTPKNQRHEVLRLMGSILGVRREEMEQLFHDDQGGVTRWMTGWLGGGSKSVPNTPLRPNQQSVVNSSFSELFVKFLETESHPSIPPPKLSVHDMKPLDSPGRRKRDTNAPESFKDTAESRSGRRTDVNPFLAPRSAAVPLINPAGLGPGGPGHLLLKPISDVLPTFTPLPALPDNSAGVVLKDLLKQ
UniProt Q92973: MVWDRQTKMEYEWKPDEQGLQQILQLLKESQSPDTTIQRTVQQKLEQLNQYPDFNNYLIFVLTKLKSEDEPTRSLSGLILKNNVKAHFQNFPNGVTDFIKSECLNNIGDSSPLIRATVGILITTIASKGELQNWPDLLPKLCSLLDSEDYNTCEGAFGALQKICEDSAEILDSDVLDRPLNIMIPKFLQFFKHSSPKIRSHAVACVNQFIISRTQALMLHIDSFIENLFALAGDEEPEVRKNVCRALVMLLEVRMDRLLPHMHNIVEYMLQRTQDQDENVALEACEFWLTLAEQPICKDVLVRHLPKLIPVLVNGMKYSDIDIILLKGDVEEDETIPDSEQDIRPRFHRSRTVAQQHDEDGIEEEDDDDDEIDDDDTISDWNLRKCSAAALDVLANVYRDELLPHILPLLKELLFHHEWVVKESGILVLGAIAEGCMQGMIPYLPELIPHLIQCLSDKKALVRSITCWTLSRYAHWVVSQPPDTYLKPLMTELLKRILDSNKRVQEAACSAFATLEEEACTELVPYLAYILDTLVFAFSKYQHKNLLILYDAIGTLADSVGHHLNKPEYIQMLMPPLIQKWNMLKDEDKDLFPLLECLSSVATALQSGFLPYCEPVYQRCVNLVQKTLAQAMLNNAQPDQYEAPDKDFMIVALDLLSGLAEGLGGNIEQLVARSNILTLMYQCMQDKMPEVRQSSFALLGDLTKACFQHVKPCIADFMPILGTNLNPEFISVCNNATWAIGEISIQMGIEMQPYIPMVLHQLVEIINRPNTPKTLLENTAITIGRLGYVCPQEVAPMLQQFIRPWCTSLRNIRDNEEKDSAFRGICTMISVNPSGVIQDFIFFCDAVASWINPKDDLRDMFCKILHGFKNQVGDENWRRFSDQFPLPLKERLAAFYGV

Tests used:
Assay in all cases: log2 fold change, soluble protein after heating vs DMSO (PISA); higher = thermal stabilisation; K562 cells, 10 uM, 30 min; active = over 0.2 and 3.5 SD of the protein, either way, in both replicates (recomputed)
saracatinib = compound: CN1CCN(CCOc2cc(OC3CCOCC3)c3c(Nc4c(Cl)ccc5c4OCO5)ncnc3c2)CC1 [saracatinib]
Summary of the method: (§1)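 K562 cells at 2×10^6 cells/mL were treated for 30 min with 10 μM compound, and aliquots were heated for 3 min over 48°C-58°C before pooling. Extraction used PBS with 0.5% NP-40 at 4°C, and soluble protein was the supernatant after 21,000xg for 90 min, measured by TMTpro 16plex LC-MS/MS with channel sums equalised. Thermal stability values, relative to control samples and from duplicates, are log2 fold changes.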

sotrastaurin = compound: CN1CCN(c2nc(C3=C(c4c[nH]c5ccccc45)C(=O)NC3=O)c3ccccc3n2)CC1 [sotrastaurin]
Summary of the method: as §1

Tubastatin A = compound: CN1CCc2c(c3ccccc3n2Cc2ccc(C(=O)NO)cc2)C1 [Tubastatin A]
Summary of the method: as §1

[1] = compound: CNC(=O)C1=CC=CC=C1NC2=NC(=NC=C2Cl)NC3=C(C=C(C=C3)N4CCOCC4)OC
Summary of the method: as §1

defactinib = compound: CNC(=O)c1ccc(Nc2ncc(C(F)(F)F)c(NCc3nccnc3N(C)S(C)(=O)=O)n2)cc1 [defactinib]
Summary of the method: as §1

rucaparib = compound: CNCc1ccc(-c2[nH]c3cc(F)cc4c3c2CCNC4=O)cc1 [rucaparib]
Summary of the method: as §1

[2] = compound: CNc1nc(-c2ccc3c(N)n[nH]c3c2)cc(N2C[C@@H](C(=O)NC3CCCCC3)CC[C@H]2C)n1
Summary of the method: as §1

encorafenib = compound: COC(=O)N[C@@H](C)CNc1nccc(-c2cn(C(C)C)nc2-c2cc(Cl)cc(NS(C)(=O)=O)c2F)n1 [encorafenib]
Summary of the method: as §1

[3] = compound: COC(=O)[C@H](CCSC)NC(=O)C1=C(C=C(C=C1)NC[C@H](CS)N)C2=CC=CC=C2
Summary of the method: as §1

Measured: log2 fold change

TRAPPC2L (UniProt Q9UL33)
active: [1] -0.376
inactive: saracatinib -0.07 | sotrastaurin -0.101 | Tubastatin A 0.011 | defactinib -0.032 | rucaparib 0.03 | [2] -0.026 | encorafenib 0.012 | [3] -0.042

TOE1 (UniProt Q96GM8)
inactive: saracatinib 0.025 | sotrastaurin -0.016 | Tubastatin A 0.031 | [1] 0.122 | defactinib 0.193 | rucaparib -0.066 | [2] 0.05 | encorafenib 0.017 | [3] 0.05

TREML2 (UniProt Q5T2D2)
inactive: saracatinib 0.127 | sotrastaurin 0.034 | [1] -0.176 | [2] 0.002

TOMM5 isoform 2 (UniProt Q8N4H5)
inactive: saracatinib -0.033 | sotrastaurin 0.064 | Tubastatin A 0.027 | [1] 0.059 | defactinib 0.01 | rucaparib -0.033 | [2] -0.031 | encorafenib -0.036 | [3] 0.049

TRPM4 (UniProt Q8TD43)
inactive: saracatinib -0.003 | sotrastaurin 0.217 | [2] 0.051

TPP1 (UniProt O14773)
inactive: saracatinib -0.008 | sotrastaurin -0.005 | Tubastatin A 0.005 | [1] 0.007 | defactinib 0.049 | rucaparib -0.013 | [2] -0.013 | encorafenib 0.018 | [3] 0.011

TRAM1 (UniProt Q15629)
inactive: saracatinib -0.007 | sotrastaurin -0.025 | Tubastatin A -0.052 | [1] -0.208 | defactinib -0.029 | rucaparib -0.132 | [2] 0 | encorafenib 0.179 | [3] -0.052

TRIP11 (UniProt Q15643)
inactive: saracatinib -0.064 | sotrastaurin -0.121 | Tubastatin A -0.005 | [1] 0.005 | defactinib 0.019 | rucaparib -0.087 | [2] 0.131 | encorafenib -0.027 | [3] -0.153

TNPO1 (UniProt Q92973)
inactive: saracatinib 0.034 | sotrastaurin -0.062 | Tubastatin A -0.064 | [1] -0.013 | defactinib -0.123 | rucaparib -0.04 | [2] 0.009 | encorafenib 0.029 | [3] 0.006

Two consecutive records from above, for reference:
TRIP11 (UniProt Q15643)
inactive: saracatinib -0.064 | sotrastaurin -0.121 | Tubastatin A -0.005 | [1] 0.005 | defactinib 0.019 | rucaparib -0.087 | [2] 0.131 | encorafenib -0.027 | [3] -0.153

TNPO1 (UniProt Q92973)
inactive: saracatinib 0.034 | sotrastaurin -0.062 | Tubastatin A -0.064 | [1] -0.013 | defactinib -0.123 | rucaparib -0.04 | [2] 0.009 | encorafenib 0.029 | [3] 0.006
